# Data as given in PubChem BioAssay AID1259424 (University of Nebraska Medical Center, 2018).
# Aim: 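Find knockdowns that reproduce the expression shifts seen after KSR1 loss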 (primary screen)
# Cell system: human HCT116 colon cancer cells
# Reagent: siRNA pool against human genes, 50 nM
# Measurement: 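Log2 levels of six mRNAs (branched-DNA multiplex), adjusted by two reference genes and the non-targeting median, then scored against the average KSR1 knockdown pattern as Pearson r and euclidean distance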
# Scale: mean correlation with KSR1 profile and KSR1 correlation: higher = expression change more like KSR1 knockdown; mean distance from KSR1 profile: higher = expression change less like KSR1 knockdown
# Shown is a random part of about 14,000 reagents tested. 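Higher correlation or smaller distance means closer resemblance to KSR1 loss; control wells, including KSR1 knockdowns, recur on many plates.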 Not all columns of the deposit are shown. The record does not give: the time to read-out.
Gene,mean correlation with KSR1 profile,mean distance from KSR1 profile,"KSR1 correlation, replicate 1"
ZNF200 (zinc finger protein 200),0.22,1.9,0.268
TAT (tyrosine aminotransferase),0.471,1.9,0.307
CLDN11 (claudin 11),-0.0778,1.92,-0.132
APOBEC3F (apolipoprotein B mRNA editing enzyme catalytic subunit 3F),-0.655,1.96,-0.89
HDAC11 (histone deacetylase 11),0.361,1.21,0.463
HCAR2 (hydroxycarboxylic acid receptor 2),0.542,1.56,0.434
OBP2B (odorant binding protein 2B),-0.55,1.79,-0.647
INSL3 (insulin like 3),-0.221,1.9,-0.222
TBCA (tubulin folding cofactor A),-0.599,2.3,-0.584
GTPBP8 (GTP binding protein 8),0.367,1.38,0.00608
PPP4R4 (protein phosphatase 4 regulatory subunit 4),-0.588,1.8,-0.66
KCND1 (potassium voltage-gated channel subfamily D member 1),-0.529,1.73,-0.715
AADAC (arylacetamide deacetylase),0.917,1.61,0.852
NCAPG2 (non-SMC condensin II complex subunit G2),-0.4,3.28,0.237
PRKCG (protein kinase C gamma),0.448,2.55,0.646
OR7C2 (olfactory receptor family 7 subfamily C member 2),0.458,2.04,0.525
PLPPR3 (phospholipid phosphatase related 3),-0.37,1.29,-0.104
HIRIP3 (HIRA interacting protein 3),-0.0852,4.54,-0.0493
MAZ (MYC associated zinc finger protein),0.216,2,0.323
MLLT3 (MLLT3 super elongation complex subunit),-0.176,1.67,-0.336
RUBCN (rubicon autophagy regulator),0.284,3.6,0.418
NLRP13 (NLR family pyrin domain containing 13),-0.325,1.86,-0.24
TCF25 (TCF25 ribosome quality control complex subunit),0.549,1.75,0.589
IFT22 (intraflagellar transport 22),-0.184,3.04,-0.203
SLC39A9,-0.316,2.21,-0.287
TPTEP1 (TPTE pseudogene 1),-0.122,4.12,-0.269
TBL1XR1 (TBL1X/Y related 1),0.756,1.74,0.76
MFN1 (mitofusin 1),-0.314,1.31,-0.299
HMOX1 (heme oxygenase 1),0.0549,2.03,0.0702
IL12A (interleukin 12A),0.121,1.8,0.161
REC8 (REC8 meiotic cohesin complex component),-0.553,2.12,-0.742
APBA3 (amyloid beta precursor protein binding family A member 3),-0.362,2.74,-0.0364
PTCH2 (patched 2),-0.457,2.29,-0.343
CYSLTR2 (cysteinyl leukotriene receptor 2),0.816,1.99,0.809
TAAR9 (trace amine associated receptor 9),0.94,1.49,0.956
CYP27A1 (cytochrome P450 family 27 subfamily A member 1),0.199,2.45,0.462
MADD (MAP kinase activating death domain),-0.26,1.94,-0.416
HCAR1 (hydroxycarboxylic acid receptor 1),0.0917,2.86,0.262
FAM107B (family with sequence similarity 107 member B),0.511,1.83,0.356
LRFN4,-0.393,2.26,-0.533
RXRG (retinoid X receptor gamma),-0.398,2.05,-0.283
U2AF2 (U2 small nuclear RNA auxiliary factor 2),-0.244,2.95,-0.232
ZMAT5 (zinc finger matrin-type 5),-0.103,4.02,0.0132
IKZF2 (IKAROS family zinc finger 2),-0.0489,2.46,0.129
KLHL42 (kelch like family member 42),-0.334,2.75,-0.283
ERBB2 (erb-b2 receptor tyrosine kinase 2),0.657,2.3,0.406
YIPF3 (Yip1 domain family member 3),-0.411,1.97,-0.307
ARHGDIG (Rho GDP dissociation inhibitor gamma),-0.0527,1.32,-0.252
VPS33A (VPS33A core subunit of CORVET and HOPS complexes),0.013,2.05,-0.0447
DLGAP3 (DLG associated protein 3),0.287,2.04,0.198

Copied from above (7 entries):
Gene,mean correlation with KSR1 profile,mean distance from KSR1 profile,"KSR1 correlation, replicate 1"
PPP4R4 (protein phosphatase 4 regulatory subunit 4),-0.588,1.8,-0.66
KCND1 (potassium voltage-gated channel subfamily D member 1),-0.529,1.73,-0.715
AADAC (arylacetamide deacetylase),0.917,1.61,0.852
NCAPG2 (non-SMC condensin II complex subunit G2),-0.4,3.28,0.237
PRKCG (protein kinase C gamma),0.448,2.55,0.646
OR7C2 (olfactory receptor family 7 subfamily C member 2),0.458,2.04,0.525
PLPPR3 (phospholipid phosphatase related 3),-0.37,1.29,-0.104
